# From PubChem BioAssay AID1117319 (Southern Research Institute, 2015)
# Sequences of proteins named here, by UniProt entry; tags and fusion partners are left off. A change or cut given only in a name is not applied to a line headed by its entry.
# UniProt P69720: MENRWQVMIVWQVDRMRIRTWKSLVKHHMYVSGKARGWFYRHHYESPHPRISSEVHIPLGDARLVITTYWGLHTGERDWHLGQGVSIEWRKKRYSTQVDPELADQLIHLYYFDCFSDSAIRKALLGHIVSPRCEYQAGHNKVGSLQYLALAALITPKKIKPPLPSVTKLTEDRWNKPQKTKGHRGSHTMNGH
# UniProt P69721: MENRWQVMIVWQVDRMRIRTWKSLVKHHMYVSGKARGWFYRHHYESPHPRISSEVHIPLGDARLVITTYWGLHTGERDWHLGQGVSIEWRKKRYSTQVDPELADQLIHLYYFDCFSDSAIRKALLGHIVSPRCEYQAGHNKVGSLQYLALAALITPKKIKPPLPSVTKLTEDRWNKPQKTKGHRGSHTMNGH
# UniProt P69722: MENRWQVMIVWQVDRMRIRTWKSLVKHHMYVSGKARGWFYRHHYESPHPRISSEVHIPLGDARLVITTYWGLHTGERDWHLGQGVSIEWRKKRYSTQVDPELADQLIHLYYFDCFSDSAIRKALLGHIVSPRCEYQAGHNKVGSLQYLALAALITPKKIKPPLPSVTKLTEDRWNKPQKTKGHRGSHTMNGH
# UniProt P69723: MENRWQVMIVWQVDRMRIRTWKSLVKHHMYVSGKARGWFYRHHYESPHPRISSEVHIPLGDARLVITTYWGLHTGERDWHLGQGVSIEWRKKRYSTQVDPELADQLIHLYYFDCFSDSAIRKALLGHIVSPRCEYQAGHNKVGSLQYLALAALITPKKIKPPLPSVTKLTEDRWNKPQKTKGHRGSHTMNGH
# UniProt Q9HC16: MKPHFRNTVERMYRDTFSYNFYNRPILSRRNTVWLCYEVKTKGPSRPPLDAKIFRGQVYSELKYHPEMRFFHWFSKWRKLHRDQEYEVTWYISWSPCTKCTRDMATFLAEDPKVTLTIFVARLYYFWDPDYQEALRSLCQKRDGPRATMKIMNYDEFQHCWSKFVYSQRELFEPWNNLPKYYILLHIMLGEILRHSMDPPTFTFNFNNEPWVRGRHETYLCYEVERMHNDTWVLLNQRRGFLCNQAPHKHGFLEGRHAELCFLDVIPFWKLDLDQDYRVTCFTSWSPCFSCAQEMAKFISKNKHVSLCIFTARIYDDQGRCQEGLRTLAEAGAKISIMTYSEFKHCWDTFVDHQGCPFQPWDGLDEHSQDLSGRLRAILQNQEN
# The whole screen tested about 260,000 compounds, of which about 1,500 (0.58%) were called active. The shares of active, inactive and inconclusive entries below differ from those in the screen.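 The calls were made as follows: active = inhibition above a set limit at one or more doses, reproduced on every date tested; inconclusive = results disagree between test dates, or hit never tested in dose response; inactive = the rest.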
# Molecular target: Virion infectivity factor (Human immunodeficiency virus type 1 group M subtype B (isolate BH10)) + Virion infectivity factor (Human immunodeficiency virus type 1 group M subtype B (isolate BRU/LAI)) + Virion infectivity factor (Human immunodeficiency virus type 1 group M subtype B (isolate PCV12)) + Virion infectivity factor (Human immunodeficiency virus type 1 group M subtype B (isolate HXB2)) + DNA dC->dU-editing enzyme APOBEC-3G (Homo sapiens) (UniProt P69720+P69721+P69722+P69723+Q9HC16)
# Assay: inhibitors of Vif binding to APOBEC3G peptide, primary screen, biochemical, TR-FRET, GST-Vif 1-94, biotin-A3G peptide, dose response retest (AID 1117319);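 also: Vif residues 1-94 fused to GST binding biotinylated APOBEC3G peptide 110-148; 0% = full assay without inhibitor and 100% = GST in place of GST-Vif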
# Settings: active compounds read high
row,SMILES,inhibition
1,COc1ccc(-c2cc(C(=O)NCCN3CCOCC3)c3ccccc3n2)cc1,inconclusive: 33.2%
2,Cc1sc(N(C(=O)CCc2ccccc2)c2ccc(C(=O)O)cc2)nc1-c1ccccc1,inactive: -5.7%
3,CN1CCN(CCC(=O)N/N=C/c2cc([N+](=O)[O-])ccc2O)CC1,inconclusive: 46%
4,O=C(Nc1cccn(Cc2c(Cl)cccc2Cl)c1=O)c1ccc(Cl)cc1,inconclusive: 59.4%
5,O=C1CCCN1c1cccc(Br)c1,inconclusive: 37.7%
6,Cc1cc(C)c(S(=O)(=O)NCCCN2CCOCC2)cc1Br,inconclusive: 11%
7,CCOC(=O)c1cc(C)n(Cc2ccccc2)c1C,inactive: 24.3%
8,Cc1ccc(-c2csc(Cc3nc(-c4cc5ccccc5oc4=O)cs3)n2)cc1,inconclusive: 46%
9,CCCOc1ccc(S(=O)(=O)N2CCCC2)cc1[N+](=O)[O-],inconclusive: 48.6%
10,O=c1ccc(Cl)cn1Cc1ccccc1F,inconclusive: 40.8%
11,COc1ccc(NCc2ccc([N+](=O)[O-])s2)cc1,inactive: -7.61%
12,Cc1ccc(NC(=O)COC(=O)c2csc3c2CCC(C)C3)cc1S(=O)(=O)N1CCCCC1 (stereo unspecified),inconclusive: 33.4%
13,Cc1ccc(S(=O)(=O)N(C)c2ccc(OCC(=O)OCc3c(C)noc3C)cc2)cc1,inconclusive: 36.1%
14,Cc1ccc(CC2CC(=O)N(c3ccc(Cl)cn3)C2=O)cc1 (stereo unspecified),inconclusive: 17.1%
15,CCOC(=O)c1ccc(Nc2cc(C)nc(-c3ccccc3O)n2)cc1,inconclusive: 54.8%
16,COc1cccc(CNC(=O)CCNC(=O)C2CCN(S(=O)(=O)c3ccc(F)cc3)CC2)c1,inconclusive: 52.8%
17,Cc1cccc(C)c1NC(=O)CSc1nnc(-c2ccco2)n1N,inactive: -0.27%
18,Cn1c(C(=O)N2CCN(c3ncccn3)CC2)cc2c(=O)n(C)c3ccccc3c21,inconclusive: 53.8%
19,N#Cc1cc(C(=O)c2cc(Cl)ccc2O)cn(CC2CCCO2)c1=O (stereo unspecified),inconclusive: 41.5%

row,SMILES,inhibition
1,CCN(CC)c1ccc(/C=N/N2C(=O)c3ccccc3C2=O)c(O)c1,inactive: 19.7%
2,CCOC(=O)c1c(NC(=O)c2ccc(-n3cnnn3)cc2)sc2c1CCCC2,inconclusive: 38.3%
3,CC1CCCCC1NC(=O)C1CCN(C(=O)c2sccc2-n2cccc2)CC1 (stereo unspecified),inconclusive: 50.3%
4,Cc1[nH]nc(N=CC2=C(O)CC(c3ccco3)CC2=O)c1-c1ccc(Cl)cc1 (stereo unspecified),inactive: 8.53%
5,CCOC(=O)c1c(N/N=C/c2ccncc2)n[nH]c1C,inconclusive: 33.4%
6,COc1ccc(NC(=O)c2oc3ccccc3c2C)c(OC)c1,inactive: 3.61%
7,Cc1csc(NC(=O)CSc2nnc(C)s2)n1,inconclusive: 35.7%
8,Cc1ccc2[nH]c(=O)c(CN(CCCO)C(C)c3nnnn3Cc3ccco3)cc2c1 (stereo unspecified),inconclusive: 58.4%
9,Cc1ccc(NC(=O)C(C)S)cc1 (stereo unspecified),inconclusive: 60.5%
10,O=[N+]([O-])c1cc(S(=O)(=O)N2CCCC2)ccc1N/N=C/c1ccccn1,inconclusive: 45%
11,COc1cc(C2c3c([nH]c(=O)[nH]c3=O)Nc3ccc4ccccc4c32)cc(OC)c1OC (stereo unspecified),inactive: 1.71%
12,O=C(O)C(Oc1ccc2c(-c3ccccc3)cc(=O)oc2c1)c1ccccc1 (stereo unspecified),inconclusive: 47.2%
13,CCCN(C(=O)c1ccc2c(SCC(=O)O)c3c(nc2c1)CCC3)c1cccc(C)c1,inactive: 18.7%
14,Cc1noc(C)c1S(=O)(=O)Nc1ccccc1N1CCOCC1,inconclusive: 38.9%
15,Cc1nc(C(=O)NNC(=O)Nc2ccc(Cl)cc2)cs1,inconclusive: 35.6%
16,CCOC(=O)Nc1cc(C)ccc1OC,inconclusive: 52.8%
17,CC(CN1CCOCC1)OC(=O)COc1ccc(F)cc1 (stereo unspecified),inconclusive: 37.9%
18,Cc1cc(C)n(CCNC(=O)CCc2nnc(CCc3ccccc3)o2)n1,inconclusive: 44.8%
19,COCCn1c(=NC(=O)c2ccc(S(=O)(=O)N3CCCc4ccccc43)cc2)sc2cc(S(C)(=O)=O)ccc21,inconclusive: 50.2%

# Some of the entries so far, as tab-separated lines:
row	SMILES	inhibition
8	Cc1ccc2[nH]c(=O)c(CN(CCCO)C(C)c3nnnn3Cc3ccco3)cc2c1 (stereo unspecified)	inconclusive: 58.4%
11	COc1cc(C2c3c([nH]c(=O)[nH]c3=O)Nc3ccc4ccccc4c32)cc(OC)c1OC (stereo unspecified)	inactive: 1.71%
12	O=C(O)C(Oc1ccc2c(-c3ccccc3)cc(=O)oc2c1)c1ccccc1 (stereo unspecified)	inconclusive: 47.2%

# Remaining list, next part:

row,SMILES,inhibition
1,CCC(=NCCc1c(C)[nH]c2ccc(OC(F)(F)F)cc12)C1=C(O)CC(c2ccccc2)CC1=O (stereo unspecified),inconclusive: 54.6%
2,O=C(O)c1ccccc1/C=N/Nc1ccc(S(=O)(=O)N2CCOCC2)cc1[N+](=O)[O-],inconclusive: 47.8%
3,O=C(c1ccco1)N1CCN(C/C=C/c2ccccc2)CC1,inconclusive: 57.9%
4,O=C1Nc2ccc(Br)cc2/C1=N/N=C/C1=C(N2CCOCC2)C(=C\c2ccccc2)/CC1,inconclusive: 38.1%
5,COc1cccc(NC(=O)C(NCC2CCCCC2)c2ccccc2)c1 (stereo unspecified),inconclusive: 39%
6,Cc1ccc(S(=O)(=O)Nn2c(O)c(C=C3N=c4ccccc4=N3)sc2=S)cc1,inconclusive: 61.2%
7,CC(C)(C)c1cc(Cl)c(O)c(NC(=S)NC(=O)c2cccnc2)c1,inconclusive: 34%
8,COc1ccc(-n2ncc3c(NC(C)C)ncnc32)cc1,inconclusive: 54.5%
9,CC(C)n1c(-c2ccncc2)n[nH]c1=S,inconclusive: 54%
10,NC(=O)c1ccc(NC(=O)COC(=O)CC2Sc3ccccc3NC2=O)cc1 (stereo unspecified),inconclusive: 41.9%
11,Cc1ccc(/C=C/C(=O)NCCCn2ccnc2)cc1,inactive: -9.33%
12,O=C(NCCc1ccccc1)C1CCN(C2CCN(C(=O)CC3=CCCCC3)CC2)CC1,inconclusive: 47.4%
13,CCOP(=O)(OCC)C(NC(=O)Nc1ccc(Cl)c(Cl)c1)c1ccccc1 (stereo unspecified),inconclusive: 33.5%
14,CCN(CC)S(=O)(=O)c1cccc(NC(=O)c2cc(-c3cccs3)nn2-c2ccccc2)c1,inconclusive: 36.4%
15,COc1ccccc1C1=Nn2c(COc3ccccc3)nnc2SC1,inconclusive: 42.2%
16,Cc1c(C(=O)OCc2ccccc2)[nH]c2c1C(=O)CC(c1ccco1)C2 (stereo unspecified),inconclusive: 43.7%
17,CC(C)n1cc(/C=N/NC(=O)COc2cccc3cccnc23)c2ccccc21,inconclusive: 43.3%
18,Cc1cc(/C=c2\sc3nc4ccccc4n3c2=O)c(C)n1-c1ccc(C(=O)O)cc1,inconclusive: 38.3%
